Measured values taken from patent US20100172835A1 (BURNHAM INSTITUTE FOR MEDICAL RESEARCH, published 2010).
Results are given in words; binding and its absence hold for the method and conditions named. For some of these results: In cells and extracts the contact can be indirect. Some binding calls cover weakened binding; strength is not graded here.

Key:
[1] = biological target: T1, gC1qR/p32 at the cell surface (human, UniProt Q07021 74-282); assay: phage binding to transfected, EGFP-sorted C8161 cells
T1 construct: whole, on cells; also called cell surface p32
T1 sequence (looked up): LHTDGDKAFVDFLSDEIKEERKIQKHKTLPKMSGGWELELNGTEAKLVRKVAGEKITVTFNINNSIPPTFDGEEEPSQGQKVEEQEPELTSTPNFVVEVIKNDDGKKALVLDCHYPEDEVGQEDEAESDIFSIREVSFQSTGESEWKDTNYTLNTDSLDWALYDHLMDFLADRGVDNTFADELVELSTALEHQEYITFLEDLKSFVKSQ

[2] = biological target: T2, purified gC1qR/p32 protein (human, UniProt Q07021 74-282); assay: phage binding to coated wells, plaque assay
T2 construct: also called purified p32
T2 sequence (looked up): T1 sequence (looked up)

[3] = biological target: T2, purified gC1qR/p32 protein; assay: phage binding to coated wells (5 µg/ml), 16 h at 37 C, plaque assay
[4] = biological target: T2, purified gC1qR/p32 protein; assay: phage binding to coated wells
[5] = biological target: T1, gC1qR/p32 at the cell surface; assay: phage binding to p32-transfected C8161 cells and Raji cells
[6] = biological target: T1, gC1qR/p32 at the cell surface; assay: phage binding to transfected C8161 cells
[7] = biological target: T3, gC1qR/p32 from tumor cell extracts (human, UniProt Q07021 74-282); assay: pull-down with biotinylated peptide from MDA-MB-435 extracts
T3 construct: mature; From xenograft extracts an additional 75 kD band was also identified as gC1qR/p32; also called gC1q/p32 receptor; p32/p33/gC1qR/HABP1
T3 sequence (looked up): T1 sequence (looked up)

[8] = biological target: T3, gC1qR/p32 from tumor cell extracts; assay: pull-down with biotinylated peptide
[9] = biological target: T3, gC1qR/p32 from tumor cell extracts; assay: pull-down with biotinylated peptide from MDA-MB-435 cell and xenograft extracts
[10] = biological target: T3, gC1qR/p32 from tumor cell extracts; assay: pull-down with biotin-labeled peptide from MDA-MB-435 extracts; band identified by MALDI-TOF as mature gC1qR/p32; also from BT549 cells and MDA-MB-435 xenografts

Measured: binding

CGNKRTRGC (peptide, not shown: large carriers) [LyP-1 phage]
binds: [1] | [2] | [3] | [4] | [5] | [6]

CGNKRTRGC (biotinylated; cyclic peptide with a disulfide bond) [biotinylated Lyp-1 peptide]
binds: [7] | [8] | [9] | [10]
